# Values of other authors in patent US20130059830A1, “NOVEL PROLYLCARBOXYPEPTIDASE INHIBITORS” (priority 2010, published 2013).
# Some entries share one result that the patent states for a list of compounds. Some ranges recur; such a range may be that of the whole group of compounds.
# Settings: in vivo; cited from earlier work
structure (smiles),measurement,value
CCCCCCCCCCC[C@@H](C[C@@H]1OC(=O)[C@H]1CCCCCC)OC(=O)[C@H](CC(C)C)NC=O [orlistat],weight loss of body weight for drug compared to placebo,5%-10%
